Test results published in article PMC6862723.

Target: T1, sodium iodide symporter (NIS) (UniProt Q92911)
T1 sequence: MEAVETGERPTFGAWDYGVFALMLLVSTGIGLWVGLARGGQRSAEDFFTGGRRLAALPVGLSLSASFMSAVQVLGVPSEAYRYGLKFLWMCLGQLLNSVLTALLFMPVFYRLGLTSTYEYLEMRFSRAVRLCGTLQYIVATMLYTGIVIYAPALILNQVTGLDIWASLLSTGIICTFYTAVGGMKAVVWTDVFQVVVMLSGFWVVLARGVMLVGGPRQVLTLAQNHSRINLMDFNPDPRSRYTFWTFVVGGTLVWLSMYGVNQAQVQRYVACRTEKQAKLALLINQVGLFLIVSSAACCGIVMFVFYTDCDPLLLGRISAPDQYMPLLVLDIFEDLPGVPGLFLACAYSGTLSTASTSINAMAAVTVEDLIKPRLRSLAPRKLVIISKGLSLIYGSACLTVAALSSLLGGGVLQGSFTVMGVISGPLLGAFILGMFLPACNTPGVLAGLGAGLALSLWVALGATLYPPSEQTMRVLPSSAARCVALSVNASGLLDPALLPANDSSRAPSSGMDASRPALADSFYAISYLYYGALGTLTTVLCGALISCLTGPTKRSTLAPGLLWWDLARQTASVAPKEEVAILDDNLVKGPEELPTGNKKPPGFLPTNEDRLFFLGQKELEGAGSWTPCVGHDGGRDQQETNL
Assay: affinity purification with mass spectrometry; only 'mass spectrometry' is printed; bait, cells and conditions not stated

VCP (from UniProt P55072 1-806) was tested, and the binding was “binds”.

These are yes or no findings as the source states them, for the method shown. Binding seen in cells or lysates may run through a third protein. Here binding means that the protein was enriched with, or labelled near, the bait; the list need not be complete.
